Holding throughout (assay): SEC; purified His-tagged TOPs treated 30 min at RT with DTTred, DTTox, GSH or GSSG, purified again and dialysed; XBridge BEH200A SEC column, 50 mM sodium phosphate, 150 mM NaCl, 0.02% NaN3, pH 7.0; both purified
Background: SEC sorts molecules by how far they enter the pores of the column.

Test [1] deals with TOP2 C^405A (A. thaliana) (UniProt Q949P2).
The target of test [2] is TOP2 C^460A (A. thaliana) (UniProt Q949P2).
The target in test [3] is TOP2 C^611A (A. thaliana) (UniProt Q949P2).
Test [4] concerns the target TOP2 C^523A (A. thaliana) (UniProt Q949P2).

Numbering of substitutions follows the chain as printed. No constants are given. Whether binding was seen depends on the method and setting.

B1: TOP2 C^405A (enzyme, UniProt Q949P2 1-701)
chain: MASEDTLSSNPLLQNFDFPPFDSVDAHHVRPGIRALLQQLEAELEQLEKAVEPSWPKLVEPLEKIIDRLSVVWGMINHLKAVKDTPELRAAIEEVQPEKVKFQLRLGQSKPIYNAFKAIRESPDWNSLSEARQRLVEAQIKEAVLSGIALEDDKREEFNKIEQELEKLSHKFSENVLDATKKFEKLITDKKEIEGLPPSALGLFAQAAVSKGHETATADTGPWLITLDAPSYLPVMQHAKNRALREEVYRAYLSRASSGDLDNTAIIDQILKLRLEKAKLLGYRNYAEVSMATKMATVEKADELLEKLRSASWDPAVQDIEDLKSFAKNQGAAEADSLTHWDITFWSERLRESKYDINEEELRPYFSLPKVMDALFGLAKTLFGIDVVPADGVAPVWNSDVRFYAVKDSSGNPTAYFYFDPYSRPSEKRDGAWMDEVFSRSRVMAQKGSSVRLPVAQMVCNQTPPVGDKPSLMTFREVETVFHEFGHALQHMLTKEDEGLVAGIRNIEWDAVELPSQFMENWCYHRDTLMSIAKHYQTGETLPENVYKKLLAARTFRAGSLSLRQLKFATVDLELHTKYMPGGAETIYEVDQRVSIKTQVIPPLPEDRFLCSFSHIFAGGYAAGYYSYKWAEVLSADAFSAFEDAGLDDIKAVKETGQRFRNTILALGGGKAPLKVFVEFRGREPSPEPLLRHNGLLAASA
Turning to B1, the binding result in test [1] was “no binding”.

B2: TOP2 C^460A (enzyme, UniProt Q949P2 1-701)
chain: B1 chain with A405C, C460A
For B2, the binding result in test [2] is “no binding”.

B3: TOP2 C^611A (enzyme, UniProt Q949P2 1-701)
chain: B1 chain with A405C, C611A
In the case of B3, the binding result in test [3] is recorded as “no binding”.

B4: TOP2 C^523A (enzyme, UniProt Q949P2 1-701)
chain: B1 chain with A405C, C523A
Take B4: the binding result in test [4] is “no binding”.

For the origin of these results see PMC8215294.
